Our source for the IC50 values is US12187726B1, “Imidazo[1,5-a]pyrido[4,3-e]pyrazines as CK2 inhibitors” (KING FAISAL UNIVERSITY, priority 2024, dated 2025).

What is called pIC50 is the IC50 on a negative log10 scale, so that one unit is a factor of ten.

Common to all, as to format: cell-based
The subject of assay [1] is HCT116 (colon) cancer cells. In words: MTT in vitro cytotoxic activity assay, HCT116. The conditions noted are these: Homo sapiens, HCT-116; cells exposed for 96 hours; 50% inhibition of cell proliferation; read-out: Cytotoxicity activity IC50, HCT116 (colon). The procedure:
(§1) Compounds 1-16 were screened for their in vitro cytotoxic activity utilizing a 3-(4,5-dimethyl-thiazol-2-yl)-2,5-diphenyltetrazolium bromide (MTT) assay against selected cancer human cell lines consisting of PC3 (prostate), HCT116 (colon), A375 (melanoma), H1299 (lung), MIAPaCa-2 (pancreas), HL60 (leukemia), MCF7 (breast), MDA-MB-231 (breast) (T. Mosmann, J. Immunol. Meth., 1983, 65, 55-63). The cells were cultured at 37° C. in RMPI1640 medium supplemented with 10% fetal bovine serum, 50 IU/mL penicillin, and 50 μg/mL streptomycin in a 5% CO2 incubator. All cells were sub-cultured 3 times/week by trypsinisation. Viable cells were seeded and allowed to adhere for 12 hours before a test drug was added in 96-well plates at an initial density of 1.0×10^5 cells/mL. Tumor cell lines were separately exposed to various concentrations of the tested compounds followed by incubation at a temperature of 37° C. during 96 hours inside a medium of fresh RMPI 1640. Cells were subsequently incubated at 37° C. using MTT at 0.5 mg/mL during 4 hours. After removal of supernatant, formazan crystals were dissolved in isopropanol and the optical density was measured at 570 nm. CX-4945 was used as a positive control.

Assay [2] has as its system H1299 (lung) cancer cells. In words: MTT in vitro cytotoxic activity assay, H1299. Particulars: Homo sapiens, NCI-H1299; cells exposed for 96 hours; 50% inhibition of cell proliferation; read-out: Cytotoxicity activity IC50, H1299 (lung). Here is the method: as §1
The subject of assay [3] is HL60 (leukemia) cancer cells. Nature of the assay: MTT in vitro cytotoxic activity assay, HL60. Particulars: Homo sapiens, HL-60; cells exposed for 96 hours; 50% inhibition of cell proliferation; read-out: Cytotoxicity activity IC50, HL60 (leukemia). The procedure: as §1
Assay [4] deals with MDA-MB-231 (breast) cancer cells. In words: MTT in vitro cytotoxic activity assay, MDA-MB-231. The conditions noted are these: Homo sapiens, cells exposed for 96 hours, 50% inhibition of cell proliferation, read-out: Cytotoxicity activity IC50, MDA-MB-231 (breast). The procedure:
as §1

For assay [5], the system named is MCF7 (breast) cancer cells. Nature of the assay: MTT in vitro cytotoxic activity assay, MCF7. Particulars: Homo sapiens, cells exposed for 96 hours, 50% inhibition of cell proliferation, read-out: Cytotoxicity activity IC50, MCF7 (breast). Here is the method:
as §1

For assay [6], the system named is PC3 (prostate) cancer cells. In words: MTT in vitro cytotoxic activity assay, PC3. The conditions noted are these: Homo sapiens; cells exposed for 96 hours; 50% inhibition of cell proliferation; read-out: Cytotoxicity activity IC50, PC3 (prostate). Here is the method: as §1
Assay [7] deals with A375 (melanoma) cancer cells. In words: MTT in vitro cytotoxic activity assay, A375. Particulars: Homo sapiens, A-375; cells exposed for 96 hours; 50% inhibition of cell proliferation; read-out: Cytotoxicity activity IC50, A375 (melanoma). Here is the method:
as §1

Assay [8] deals with MIAPaCa-2 (pancreas) cancer cells. In words: MTT in vitro cytotoxic activity assay, MIAPaCa-2. The conditions noted are these: Homo sapiens, MIA PaCa-2; cells exposed for 96 hours; 50% inhibition of cell proliferation; read-out: Cytotoxicity activity IC50, MIAPaCa-2 (pancreas). The procedure:
as §1

pIC50: −log10 of the molar value.

Take `O=C(O)c1ccc2c(c1)nc(Nc1cccc(Cl)c1)c1ccncc12` [CX-4945, reference compound]: the pIC50 was 5.64 in assay [1]; 5.64 in assay [2]; 5.43 in assay [3]; 5.21 in assay [4]; 5.04 in assay [5]; 5.70 in assay [6]. For the same compound, the pIC50 is 5.39 in assay [7] and 6.00 in assay [8].
